The other results are listed elsewhere or left out.
B1: il2ra_site1_2b5i_normal_mot_HHH_b2_04910_000000118_0001_1_19_H_._HHH_b1_05884_0001_0000500029_0000001_0 (protein)
chain: SSSSSEETRELQELFREADELDRRGNEEEAEEVLREAIELARQAGSRSMLKMLESALKELGSSSS
B2: il2ra_site2_3nfp_normal_mot_HHH_b2_06150_000000251_0001_1_17_H_._HHH_b2_07927_0001_0000200027_0000001_1 (protein)
chain: SSSSDEEEREVERLLKEAKELLEEGDPEEARQVLAEAAHLAFRLGNVELFAEIAKLYLELGSSSS
B3: il2ra_site2_2erj_sap_25_mot_3b06bd03f1c6bceadc68eab912867b79_0001_000000296_0001_36_50_H_._HHH_b2_02691_0001_0000100001_0000001_1_0001 (protein)
chain: SSSSTEELHELYKLLVELLRLWAEGDEEKIEELLRRVEELAEKLQSESAREIVELVQKELSSSSS
B4: il2ra_site1_3nfp_sap_16_mot_HHH_b1_00630_af2_000000193_0001_42_55_H_._190733a505cf72e9f5bb281964386224_0001_1_af2_0001_0000500030_0000001_0_0001 (protein)
chain: THLRHVTKMIEEMAKKMGVPSVEVEVHNGTVHVRLEGTDEAARAAAEAAESMAEFAGISFEIEHE
B5: il2ra_site1_2b5i_normal_mot_HHH_b2_04910_000000118_0001_1_19_H_._HHH_b1_00058_af2_0001_0000900023_0000001_0_af2pred_dldesign_0_af2pred (protein)
chain: SSSSSAAEEARALFLKANELKQAGKEEEAKKVLEEALEKARAAGANLLARMIELALEQLESSSSS
B6: il2ra_site2_3nfp_normal_mot_HHH_b1_05628_af2_000000064_0001_19_35_H_._HHH_b1_05635_af2_0001_0000200017_0000001_0_af2pred_0001_1_af2pred_swapped (protein)
chain: SSSSDEEVEELLERAKELLERGNLEEAEKVIRRAASLASELNDHELFAIASELMWELLELLSSSS
B7: il2ra_site2_3nfp_sap_17_mot_HHH_b1_07052_000000239_0001_40_58_H_._3f793dc3d3e05f21786c6523247b6786_0001_1_0001_0000300009_0000001_0_0001 (protein)
chain: SSSSDHEEDLLRAVILLARLAYEQGDPEAAERHLRMAEKTARDAGNEELLKEIEKLLEEINSSSS
B8: il2ra_site2_3nfp_normal_mot_HHH_b2_03679_af2_000000123_0001_41_56_H_._HHH_b1_07302_0001_0000600048_0000001_0 (protein)
chain: SSSSDREEYLRAALLLLEWAVEEGDEELVEKLFHLIHLFVEDARDPEAEKRLEELYERFRSSSSS
B9: il2ra_site2_3nfp_sap_23_mot_HHH_b1_01086_000000225_0001_20_36_H_._HHH_b1_07035_0001_0000200008_0000001_0_0001_af2pred_0001_af2pred_1 (protein)
chain: SSSSSEEELEKLVEELEQLVERNDKEKFREVSSRASQLAWELGDVEVFRLLAELLLRILGSSSSS
B10: il2ra_site1_2b5i_normal_mot_HHH_b1_06833_000000178_0001_1_19_H_._HHH_b1_00669_af2_0001_0000400022_0000001_0_af2pred_dldesign_0_af2pred (protein)
chain: SSSSNPEVEKLMEELEEAAKTDEQWELYRKAKKEIIKLLLQGKPEEAKKLAEETLEEIKALSSSS

target: il2ra, P01589; test: yeast display titration

Apparent Kd, inactive:
B1 no binding seen
B2 no binding seen
B3 no binding seen
B4 no binding seen
B5 no binding seen
B6 no binding seen
B7 no binding seen
B8 no binding seen
B9 no binding seen
B10 no binding seen
